Laboratory results: publication doi:10.1101/2022.08.16.504078
No constants are given. Whether binding was seen depends on the method and setting. Binding seen in cells or lysates may run through a third protein. Some results given as binding are weak or reduced against the parent protein; the word gives no strength.

Sequences of proteins named here, by UniProt entry; tags and fusion partners are left off. Residues count along the entry.
UniProt P17301, residues 30-1181: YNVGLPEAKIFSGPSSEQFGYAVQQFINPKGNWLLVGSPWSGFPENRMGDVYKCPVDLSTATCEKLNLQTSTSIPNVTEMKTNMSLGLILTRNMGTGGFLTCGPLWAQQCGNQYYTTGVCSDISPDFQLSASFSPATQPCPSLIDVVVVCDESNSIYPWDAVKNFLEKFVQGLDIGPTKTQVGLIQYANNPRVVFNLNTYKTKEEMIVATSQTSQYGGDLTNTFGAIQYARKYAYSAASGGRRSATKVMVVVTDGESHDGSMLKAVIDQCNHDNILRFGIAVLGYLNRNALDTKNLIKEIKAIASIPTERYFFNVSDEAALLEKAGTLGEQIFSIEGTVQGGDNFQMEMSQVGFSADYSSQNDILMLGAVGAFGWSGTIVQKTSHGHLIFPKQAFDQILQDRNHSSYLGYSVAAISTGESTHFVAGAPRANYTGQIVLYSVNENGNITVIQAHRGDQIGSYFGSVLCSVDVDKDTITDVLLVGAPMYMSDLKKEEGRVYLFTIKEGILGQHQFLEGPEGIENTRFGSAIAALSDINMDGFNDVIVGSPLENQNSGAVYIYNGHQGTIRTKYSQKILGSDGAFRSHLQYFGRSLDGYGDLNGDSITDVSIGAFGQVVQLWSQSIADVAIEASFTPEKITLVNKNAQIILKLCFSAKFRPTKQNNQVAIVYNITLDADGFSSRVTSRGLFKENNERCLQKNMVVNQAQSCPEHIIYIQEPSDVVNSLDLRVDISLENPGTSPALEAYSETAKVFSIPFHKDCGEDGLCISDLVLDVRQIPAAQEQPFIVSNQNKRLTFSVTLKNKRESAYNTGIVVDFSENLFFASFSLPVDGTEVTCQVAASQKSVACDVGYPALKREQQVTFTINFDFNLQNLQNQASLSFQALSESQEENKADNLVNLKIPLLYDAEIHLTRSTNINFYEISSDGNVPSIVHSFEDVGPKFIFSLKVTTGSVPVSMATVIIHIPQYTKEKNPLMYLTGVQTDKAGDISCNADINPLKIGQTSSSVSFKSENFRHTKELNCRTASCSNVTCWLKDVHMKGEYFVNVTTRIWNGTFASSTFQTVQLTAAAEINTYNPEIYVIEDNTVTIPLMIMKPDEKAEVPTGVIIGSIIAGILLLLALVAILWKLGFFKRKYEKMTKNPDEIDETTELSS
UniProt P18564, residues 22-788: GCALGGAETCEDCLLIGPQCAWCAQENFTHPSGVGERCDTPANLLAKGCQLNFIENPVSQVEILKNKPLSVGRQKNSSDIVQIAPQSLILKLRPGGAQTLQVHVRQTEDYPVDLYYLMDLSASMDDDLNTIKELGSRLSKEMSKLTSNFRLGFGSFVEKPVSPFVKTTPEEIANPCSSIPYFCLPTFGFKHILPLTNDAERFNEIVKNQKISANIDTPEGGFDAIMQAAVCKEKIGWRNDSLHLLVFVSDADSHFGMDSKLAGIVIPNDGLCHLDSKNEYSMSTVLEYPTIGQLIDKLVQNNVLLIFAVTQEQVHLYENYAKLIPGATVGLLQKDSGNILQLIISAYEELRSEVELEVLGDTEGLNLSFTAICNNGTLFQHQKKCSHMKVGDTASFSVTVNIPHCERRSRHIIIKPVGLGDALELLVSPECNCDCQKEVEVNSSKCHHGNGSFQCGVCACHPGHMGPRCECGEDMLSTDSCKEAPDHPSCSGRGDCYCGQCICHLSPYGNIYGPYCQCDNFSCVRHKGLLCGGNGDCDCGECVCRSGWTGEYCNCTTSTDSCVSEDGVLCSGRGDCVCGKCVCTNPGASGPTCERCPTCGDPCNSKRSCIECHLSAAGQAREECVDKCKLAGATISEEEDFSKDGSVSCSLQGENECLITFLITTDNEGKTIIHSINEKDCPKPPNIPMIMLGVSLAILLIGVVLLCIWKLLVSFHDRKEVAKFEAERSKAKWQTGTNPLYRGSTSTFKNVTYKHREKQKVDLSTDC
UniProt P05107, residues 23-769: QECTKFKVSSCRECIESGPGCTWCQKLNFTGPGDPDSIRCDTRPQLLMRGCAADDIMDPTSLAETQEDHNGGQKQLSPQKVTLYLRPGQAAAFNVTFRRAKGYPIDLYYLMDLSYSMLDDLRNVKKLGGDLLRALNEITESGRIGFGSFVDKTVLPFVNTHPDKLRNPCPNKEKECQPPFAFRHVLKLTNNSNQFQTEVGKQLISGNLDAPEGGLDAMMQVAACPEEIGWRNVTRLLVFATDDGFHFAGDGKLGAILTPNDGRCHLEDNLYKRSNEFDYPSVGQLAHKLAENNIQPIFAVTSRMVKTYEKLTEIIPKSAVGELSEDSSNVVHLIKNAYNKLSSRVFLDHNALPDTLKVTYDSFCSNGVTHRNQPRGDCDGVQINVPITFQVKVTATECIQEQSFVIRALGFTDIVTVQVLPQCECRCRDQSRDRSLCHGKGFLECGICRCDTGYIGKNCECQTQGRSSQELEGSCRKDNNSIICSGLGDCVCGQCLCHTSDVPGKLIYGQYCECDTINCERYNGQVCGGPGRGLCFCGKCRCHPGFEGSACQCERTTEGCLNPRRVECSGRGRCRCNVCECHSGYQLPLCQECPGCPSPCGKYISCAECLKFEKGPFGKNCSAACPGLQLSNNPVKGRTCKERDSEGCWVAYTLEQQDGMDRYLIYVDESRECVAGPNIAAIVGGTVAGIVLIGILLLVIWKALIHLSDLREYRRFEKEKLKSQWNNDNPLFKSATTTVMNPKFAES

What was measured:
[1] = molecular target: ITGA2-HIS (integrin alpha subunit ITGA2 with HIS tag) (human) (UniProt P17301); assay: co-IP
[2] = molecular target: endogenous ITGB6 (human (endogenous in A549)) (UniProt P18564); assay: co-IP

| binding [1] | binding [2] | Substance |
| --- | --- | --- |
| binds |  | ITGB2-YFP (integrin beta subunit ITGB2 with YFP) (from UniProt P05107 23-769) |
| binds |  | ITGB6-GFP (integrin beta subunit ITGB6 with GFP) (from UniProt P18564 22-788) |
|  | binds | endogenous non-phosphorylated EGF receptor (EGFR) (from UniProt P00533 25-1210) |
